Patent US4017607A
Some entries repeat one wording, which the source may state once for all of them.

Assay: Bitter taste upon oral administration

CCC(=O)OC1CC(=O)OC(C)CC=CC=CC(O)C(C)CC(CC=O)C(OC2OC(C)C(OC3CC(C)(O)C(OC(=O)CC)C(C)O3)C(N(C)C)C2O)C1OC (stereo not shown) [SF-837 substance, reference compound]
bitter taste: unpleasant long-lasting bitter taste
